Where a protein sequence is shown, tags need not be part of it.
Assays:
[1] = molecular target: T1, TelN protelomerase (Escherichia phage N15) (UniProt Q77WP1); experiment: enzyme reaction in vitro; conditions: plasmid cut into two closed linear fragments; ThermoPol buffer, 30 C 1 h; purified recombinant protein; protein details: New England BioLabs M0651S
T1 sequence (looked up, limits assumed): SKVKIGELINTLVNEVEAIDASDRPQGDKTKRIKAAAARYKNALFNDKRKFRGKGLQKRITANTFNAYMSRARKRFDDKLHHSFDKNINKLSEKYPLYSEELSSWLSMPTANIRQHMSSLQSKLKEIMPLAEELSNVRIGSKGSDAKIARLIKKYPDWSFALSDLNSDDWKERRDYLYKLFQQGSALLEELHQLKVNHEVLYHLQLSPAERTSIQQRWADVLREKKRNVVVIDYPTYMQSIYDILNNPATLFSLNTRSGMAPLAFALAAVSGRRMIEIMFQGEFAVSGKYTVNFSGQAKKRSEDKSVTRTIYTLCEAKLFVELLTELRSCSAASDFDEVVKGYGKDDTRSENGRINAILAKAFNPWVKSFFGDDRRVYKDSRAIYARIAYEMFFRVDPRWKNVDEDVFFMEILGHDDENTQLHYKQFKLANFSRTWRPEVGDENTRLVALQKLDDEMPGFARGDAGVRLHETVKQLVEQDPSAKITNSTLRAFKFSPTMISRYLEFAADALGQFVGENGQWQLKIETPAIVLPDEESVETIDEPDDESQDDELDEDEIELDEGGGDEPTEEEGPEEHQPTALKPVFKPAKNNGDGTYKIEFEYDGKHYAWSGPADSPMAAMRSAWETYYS

[2] = molecular target: T2, BspQI type IIS restriction endonuclease (UniProt D2D3S6); experiment: enzyme reaction in vitro; conditions: backbone cut into five fragments; 50 C 60 min; purified recombinant protein; only the site is given
T2 sequence (looked up, limits assumed): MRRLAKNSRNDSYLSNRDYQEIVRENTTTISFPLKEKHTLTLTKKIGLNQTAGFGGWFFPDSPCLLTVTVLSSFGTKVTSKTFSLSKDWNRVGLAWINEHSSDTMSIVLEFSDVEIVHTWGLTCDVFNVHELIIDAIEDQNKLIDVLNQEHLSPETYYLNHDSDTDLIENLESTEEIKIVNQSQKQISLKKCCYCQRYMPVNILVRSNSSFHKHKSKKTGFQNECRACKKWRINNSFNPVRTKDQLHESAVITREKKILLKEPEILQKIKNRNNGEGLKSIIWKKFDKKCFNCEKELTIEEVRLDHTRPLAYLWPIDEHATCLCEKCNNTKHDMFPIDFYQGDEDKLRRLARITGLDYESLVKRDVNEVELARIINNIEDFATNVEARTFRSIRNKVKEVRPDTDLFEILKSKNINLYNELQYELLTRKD

Sequence | activity on this sequence [1] | activity on this sequence [2]
TATCAGCACACAATTGCCCATTATACGCGCGTATAATGGACTATTGTGTGCTGATA (double strand) [TelN recognition sequence] | active | 
GCTCTTC (double strand) [BspQI recognition sequence in vector backbone] |  | active

Reference: US20240084285
